Experimental data published in paper PMC12431657, “Discovery and mechanistic insights of dibenzoylmethane as a broad spectrum inhibitor of coronavirus” (PLOS Pathogens, 2025).
Where a name gives a salt, the structure may show the parent alone. Read-outs that look alike come from different tables or passages of the source. Out of some 3,300 compounds screened, about 95 (3%) showed an effect of 50% or more. The list shows a part of the results.

Tested on: HCoV-229E
Set-up: species or system Huh-7; HTS, protection from HCoV-229E induced cell death, luminescent cell viability (CellCounting-Lite 2.0), inhibition rate
Conditions: 24 h post infection, 1 h compound pre-incubation, 10 µM, inhibitor

**Q.** For `O=C1C[C@@H](c2ccc(O[C@@H]3O[C@H](CO)[C@@H](O)[C@H](O)[C@H]3O)cc2)Oc2cc(O)ccc21` [Liquiritin], which “229E Inhibition rate” value is on record?
**A.** 25.4%

**Q.** With `CN(C)[C@@H]1C(O)=C(C(N)=O)C(=O)[C@@]2(O)C(O)=C3C(=O)c4c(O)cccc4[C@@](C)(O)[C@H]3[C@H](O)[C@@H]12` [Oxytetracycline (hydrochloride)] as the molecule, how does the “229E Inhibition rate” value (229E Inhibition rate, 24 h) read?
**A.** 27.8%

**Q.** Which “229E Inhibition rate” value does the source give for `CC(=O)OC/C=C(/C)CCC=C(C)C` [Neryl acetate] here?
**A.** 43.1%

**Q.** With `CC[C@H]1OC(=O)[C@H](C)[C@@H](O[C@H]2C[C@@](C)(OC)[C@@H](O)[C@H](C)O2)[C@H](C)[C@@H](O[C@@H]2O[C@H](C)C[C@H](N(C)C)[C@H]2O)[C@](C)(O)C[C@@H](C)C(=O)[C@H](C)[C@@H](O)[C@]1(C)O` [Erythromycin] as the molecule, how does the “229E Inhibition rate” value read?
**A.** 11.8%

**Q.** How did the “229E Inhibition rate” value turn out when `Nc1ccn([C@@H]2O[C@H](COP(=O)(O)OP(=O)(O)OP(=O)(O)O)[C@@H](O)[C@H]2O)c(=O)n1` [Cytidine-5'-triphosphate (disodium)] was run?
**A.** 10.3%

**Q.** Which “229E Inhibition rate” value does the source give for `CC(C)C(=O)C(=O)O` [3-Methyl-2-oxobutanoic acid] here?
**A.** 8.3%

**Q.** `NC(N)=NCCCC(=O)O` [4-Guanidinobutanoic acid] was tested. Which “229E Inhibition rate” value did it give?
**A.** 11.4%

**Q.** `C=C1[C@@H](C)[C@H]2[C@H](Cc3ccccc3)NC(=O)[C@]23OC(=O)/C=C/[C@H](O)CCC[C@@H](C)C/C=C/[C@H]3[C@@H]1O` [Cytochalasin B] was tested. Which “229E Inhibition rate” value did it give?
**A.** 14.6%

**Q.** `O=P(O)(O)O[C@H]1[C@H](OP(=O)(O)O)[C@@H](OP(=O)(O)O)[C@H](OP(=O)(O)O)[C@@H](OP(=O)(O)O)[C@H]1OP(=O)(O)O` [Phytic acid (dodecasodium hydrate)] was tested. Which “229E Inhibition rate” value (229E Inhibition rate, 24 h) did it give?
**A.** 9.4%

**Q.** Which “229E Inhibition rate” value does the source give for `COc1cc2oc(=O)ccc2cc1O[C@@H]1O[C@H](CO)[C@@H](O)[C@H](O)[C@H]1O` [Magnolioside] here?
**A.** 9.5%

**Q.** How did the “229E Inhibition rate” value turn out when `COc1cc(-c2coc3cc4c(c(OC)c3c2=O)OCO4)cc(OC)c1OC` [Irisflorentin] was run?
**A.** 11.3%

**Q.** How did the “229E Inhibition rate” value turn out when `COc1c(O)cc2occ(-c3ccc(O)cc3)c(=O)c2c1O` [Tectorigenin] was run?
**A.** 11.7%

**Q.** Which “229E Inhibition rate” value does the source give for `NCCCCC(=O)O` [5-Aminovaleric acid] here?
**A.** 13.8%

**Q.** `c1ccc(CC2=NCCN2)cc1` [Tolazoline (hydrochloride)] was tested. Which “229E Inhibition rate” value did it give?
**A.** 16.2%

**Q.** `NC(Cc1cc(I)c(Oc2cc(I)c(OS(=O)(=O)O)c(I)c2)c(I)c1)C(=O)O` (stereo not shown) [Thyroxine sulfate] was tested. Which “229E Inhibition rate” value did it give?
**A.** 8.9%

**Q.** With `O=C(O)CCCc1c[nH]c2ccccc12` [Indole-3-butyric acid] as the molecule, how does the “229E Inhibition rate” value read?
**A.** 9.7%

**Q.** How did the “229E Inhibition rate” value turn out when `CC(C)[C@@H](C)/C=C/[C@@H](C)[C@H]1CC[C@H]2C3=CC=C4C[C@@H](O)CC[C@]4(C)[C@H]3CC[C@]12C` [Ergosterol] was run?
**A.** 4.5%

**Q.** Which “229E Inhibition rate” value does the source give for `C=CCc1ccc(O)c(OC)c1` [Eugenol] here?
**A.** 19%

**Q.** With `OC[C@@H](O)[C@@H](O)[C@H](O)[C@H](O)CO` [D-Mannitol] as the molecule, how does the “229E Inhibition rate” value read?
**A.** 11.2%

**Q.** `CC(=O)N[C@@H](Cc1ccc(O)cc1)C(=O)O` [N-Acetyl-L-tyrosine] was tested. Which “229E Inhibition rate” value did it give?
**A.** 17.6%

**Q.** How did the “229E Inhibition rate” value turn out when `CC1=COC(=O)[C@H]2[C@@H]1CC[C@@H]2C` [4aα,7α,7aα-Nepetalactone] was run?
**A.** 8.3%

**Q.** With `O=C(OCC1=C[C@@H](O)[C@@H]2C=CO[C@@H](O[C@@H]3O[C@H](CO)[C@@H](O)[C@H](O)[C@H]3O)[C@H]12)c1ccc(O)cc1` [Agnuside] as the molecule, how does the “229E Inhibition rate” value read?
**A.** 19%

**Q.** Which “229E Inhibition rate” value does the source give for `Nc1ccn([C@@H]2O[C@H](COP(=O)(O)OP(=O)(O)O)[C@@H](O)[C@H]2O)c(=O)n1` [Cytidine 5'-diphosphate (trisodium salt)] here?
**A.** 14.7%

**Q.** How did the “229E Inhibition rate” value turn out when `CC(C)=CC(=O)NCC(=O)O` [3-Methylcrotonylglycine] was run?
**A.** 20.3%

**Q.** With `CCC(=O)CO` [1-Hydroxy-2-butanone] as the molecule, how does the “229E Inhibition rate” value read?
**A.** 8.3%

**Q.** How did the “229E Inhibition rate” value turn out when `COc1cc(OC)c2c(=O)cc(-c3cc(OC)c(OC)c(OC)c3)oc2c1` [3',4',5',5,7-Pentamethoxyflavone] was run?
**A.** 8.5%

**Q.** How did the “229E Inhibition rate” value turn out when `CC(C)C1=Cc2ccc3c(c2C(=O)C1=O)CCCC3(C)C` [Miltirone] was run?
**A.** 4.2%

**Q.** Which “229E Inhibition rate” value does the source give for `COc1cc(-c2oc3cc(OC)c(OC)c(O)c3c(=O)c2OC)ccc1O` [Chrysosplenetin] here?
**A.** 22.9%

**Q.** With `C[C@@H]1O[C@@H](OC[C@H]2O[C@@H](Oc3c(-c4ccc(O)cc4)oc4cc(O)cc(O)c4c3=O)[C@H](O[C@@H]3O[C@@H](C)[C@H](O)[C@@H](O)[C@H]3O)[C@@H](O)[C@H]2O)[C@H](O)[C@H](O)[C@H]1O` [Mauritianin] as the molecule, how does the “229E Inhibition rate” value read?
**A.** 0%

**Q.** How did the “229E Inhibition rate” value turn out when `C=C(C)[C@@H]1CC[C@]2(COC(C)=O)CC[C@]3(C)[C@H](CC[C@@H]4[C@@]5(C)CC[C@H](OC(C)=O)C(C)(C)[C@@H]5CC[C@]43C)[C@@H]12` [Betulin diacetate] was run?
**A.** 4.9%

**Q.** How did the “229E Inhibition rate” value turn out when `O=c1c(O)c(-c2ccccc2)oc2ccc(O)cc12` [3,6-Dihydroxyflavone] was run?
**A.** 26.4%

**Q.** Which “229E Inhibition rate” value does the source give for `O=C(O)[C@H]1CCCN1` [(R)-pyrrolidine-2-carboxylic acid] here?
**A.** 8%

**Q.** `C=CC(C)(O)CCC=C(C)CCC=C(C)C` (mixture of isomers) [Nerolidol] was tested. Which “229E Inhibition rate” value did it give?
**A.** 17.9%

**Q.** For `N[C@@H](CCO)C(=O)O` [L-Homoserine], which “229E Inhibition rate” value is on record?
**A.** 10.6%

**Q.** How did the “229E Inhibition rate” value turn out when `C/C=C(\CC[C@@H](C)[C@H]1CC[C@H]2[C@@H]3CC=C4C[C@@H](O)CC[C@]4(C)[C@H]3CC[C@]12C)C(C)C` [Fucosterol] was run?
**A.** 20.9%

**Q.** `CC(C)=CCc1c(O)cc2oc3cc(O)c(O)c(CCC(C)(C)O)c3c(=O)c2c1O` [Garcinone C] was tested. Which “229E Inhibition rate” value did it give?
**A.** 34.9%

**Q.** With `CC(C)=CC(=O)O` [3-Methylbut-2-enoic acid] as the molecule, how does the “229E Inhibition rate” value read?
**A.** 8.4%

**Q.** `COc1ccc(-c2cc(=O)c3c(O)cc(O[C@@H]4O[C@H](CO)[C@@H](O)[C@H](O)[C@H]4O[C@@H]4O[C@@H](C)[C@H](O)[C@@H](O)[C@H]4O)cc3o2)cc1O` [Neodiosmin] was tested. Which “229E Inhibition rate” value did it give?
**A.** 15.9%

**Q.** For `CC(=O)N[C@@H](Cc1c[nH]c2ccccc12)C(=O)O` [N-Acetyl-L-tryptophan], which “229E Inhibition rate” value is on record?
**A.** 7.5%

**Q.** `C=C(C)[C@H](CC=C(C)C)Cc1c(O)cc(O)c2c1O[C@H](c1ccccc1O)CC2=O` [Kushenol A] was tested. Which “229E Inhibition rate” value did it give?
**A.** 10.8%
